PubChem BioAssay AID1259405 – NCATS, 2018

- Aim: 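Knock-downs that lift recombinant protein yield in hamster ovary cells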 (primary screen)
- Cells: Chinese hamster CHO-K1 ovary cells with stable secreted eGFP expression
- Knock-down reagent: single siRNA against mouse genes, 0.8 pmol siRNA per well (2 µl of 400 nM stock)
- Timing: 3 days
- Measurement: 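Per-well intracellular GFP measured by laser scanning cytometry, plus viability from ATP luminescence, each relative to plate median of non-targeting control wells, in %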
- Scale: GFP, % of control: higher = more GFP per well, higher productivity; viability (ATP), % of control: higher = more viable cells (more ATP)
- Hit rule: 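a knock-down is called active if GFP reaches 120% or more of non-targeting control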
Shown is a random part of about 50,000 reagents. Over the whole deposit, about 4,000 (8%) were called active. 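Mouse siRNA library applied to hamster cells; one well for each siRNA.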 Reagents against one gene are numbered here.

target | siRNA no. | GFP, % of control | viability (ATP), % of control | activity call
Adgre1 | 1 | 115 | 87.5 | inactive
Adgre1 | 2 | 55.5 | 71.5 | inactive
Adgre1 | 3 | 80.4 | 78.5 | inactive
Pimreg | 1 | 93.8 | 49.8 | inactive
Pimreg | 2 | 93.3 | 94.1 | inactive
Pimreg | 3 | 154 | 129 | active
Mboat7 | 1 | 107 | 87.8 | inactive
Mboat7 | 2 | 41.5 | 30.3 | inactive
Mboat7 | 3 | 77 | 83.8 | inactive
Sult2b1 | 1 | 115 | 89.6 | inactive
Sult2b1 | 2 | 89.1 | 45.3 | inactive
Sult2b1 | 3 | 126 | 111 | active
Slco1c1 | 1 | 116 | 105 | inactive
Slco1c1 | 2 | 63.6 | 64.8 | inactive
Slco1c1 | 3 | 96.7 | 94.1 | inactive
Tas2r135 | 1 | 53.7 | 42.3 | inactive
Tas2r135 | 2 | 47.3 | 61.7 | inactive
Tas2r135 | 3 | 71.8 | 70.8 | inactive
Tmed3 | 1 | 62.3 | 68.8 | inactive
Tmed3 | 2 | 86.4 | 84.5 | inactive
Tmed3 | 3 | 116 | 70.3 | inactive
Vasp | 1 | 60.2 | 79.1 | inactive
Vasp | 2 | 102 | 95.7 | inactive
Vasp | 3 | 89.5 | 86 | inactive
Elf1 | 1 | 59.2 | 74.6 | inactive
Elf1 | 2 | 113 | 93 | inactive
Mtnap1 | 1 | 82.8 | 84.4 | inactive
Mtnap1 | 2 | 102 | 69.4 | inactive
Mtnap1 | 3 | 92 | 98.1 | inactive
Lypd9 | 1 | 97.7 | 76.9 | inactive
Lypd9 | 2 | 70.2 | 77.9 | inactive
Lypd9 | 3 | 70.6 | 91.6 | inactive
Nepn | 1 | 71.3 | 93.2 | inactive
Nepn | 2 | 113 | 33.9 | inactive
Nepn | 3 | 55.3 | 71.8 | inactive
Flt1 | 1 | 38.1 | 57.6 | inactive
Utrn | 1 | 36.5 | 40.5 | inactive
Utrn | 2 | 138 | 111 | active
Derl3 | 1 | 118 | 97.8 | inactive
Derl3 | 2 | 68.4 | 83.4 | inactive
Derl3 | 3 | 64.1 | 76.5 | inactive
Or10d5 | 1 | 116 | 66.5 | inactive
Or10d5 | 2 | 77.3 | 83.9 | inactive
Or10d5 | 3 | 62.8 | 74.7 | inactive
Psma3 | 1 | 11.8 | 5.84 | inactive
Psma3 | 2 | 7.37 | 3.17 | inactive
Psma3 | 3 | 36.6 | 21.5 | inactive
Gdi1 | 1 | 131 | 99.6 | active
Gdi1 | 2 | 125 | 53.7 | active
Gdi1 | 3 | 71.2 | 106 | inactive
Zfp599 | 1 | 75.8 | 75.1 | inactive
Zfp599 | 2 | 60.5 | 65 | inactive
Zfp599 | 3 | 100 | 89.7 | inactive
Tut4 | 1 | 51.8 | 56.9 | inactive
Tut4 | 2 | 63.4 | 47.9 | inactive
Tut4 | 3 | 79.7 | 109 | inactive
Slc50a1 | 1 | 108 | 124 | inactive
Slc50a1 | 2 | 24.3 | 37.6 | inactive
Slc50a1 | 3 | 45.2 | 51 | inactive
